Laboratory results from US8039648B2, “Compounds used as dyes comperable to Alexa Fluor 350 dyes” (Pierce Biotechnology, Inc., priority 2009, dated 2011).

System: GAM and streptavidin
Assay: Protein labeling, overall statements (GAM and SA not distinguished)
Details: comparison among the DY-350 dyes

## Nc1ccc2c3c(c(=O)oc2c1S(=O)(=O)O)CCC3C(CC(=O)O)S(=O)(=O)[O-].[Na+] (stereo not shown) [V07-09089, 3-(7-amino-4-oxo-6-sulfo-1,2,3,4-tetrahydro-cyclopenta[c]chromen-1-yl)-3-sulfopropionic acid bis sodium salt]
  labeling among the DY-350 dyes: lower labeling
